Experimental data published in patent US9278920B2, “Pleuromutilin derivatives for use in the treatment of diseases mediated by microbes” (Nabriva Therapeutics AG, priority 2010, dated 2016).
Some of these results come from one statement about several compounds together.

Assays:
[1] = test system: Staphylococcus aureus ATCC49951; test: MIC by Agar Dilution Test or Microdilution Test (CLSI M7-A7); assay type: cell-based; conditions: in vitro; strain ATCC49951
Method: (§1) The in vitro activity against aerobic bacteria was determined by Agar Dilution Test or Microdilution Test according to the Clinical and Laboratory Standards Institute (CLSI, former NCCLS) Document M7-A7 Vol. 26, No. 2: “Methods for Dilution Antimicrobial Susceptibility Tests for Bacteria that Grow Aerobically—Approved Standard; Seventh Edition (2006)”; and the test against anaerobic bacteria was performed according to the Clinical and Laboratory Standards Institute (CLSI, former NCCLS), Document, M11-A6, Vol. 24, No. 2: “Methods for Antimicrobial Susceptibility Testing of Anaerobic Bacteria—Approved Standard; Sixth Edition (2004)” and the in vivo activity was tested by the septicemia mouse model against Staphylococcus aureus.

[2] = test system: Streptococcus pneumoniae ATCC49619; test: as above; assay type: cell-based; conditions: in vitro; strain ATCC49619
Method: as §1

Row | Substance | MIC against Staphylococcus aureus ATCC49951 [1] | MIC against Streptococcus pneumoniae ATCC49619 [2]
1 | 14-O-{[(1R, 2R, 5R)-5-[2-(2,2-Dimethyl-propylamino)-ethyl]-2-hydroxy-cyclopentylsulfanyl]-acetyl}-mutilin hydrochloride and the (1S, 2S, 5S) diastereomer thereof [Example 11] | ≤ 2 µg/mL | ≤ 2 µg/mL
2 | 14-O-{[(1R, 2S, 3S, 5R, 6S)-6-(2-Amino-acetylamino)-2-hydroxy-bicyclo[3.2.0]hept-3-ylsulfanyl]-acetyl}-mutilin and the (1S, 2R, 3R, 5S, 6R) diastereomers thereof [Example 15] | ≤ 2 µg/mL | ≤ 2 µg/mL
3 | 14-O-{[(1R, 2S, 3S, 5R, 6S)-6-Cyclopropylamino-2-hydroxy-bicyclo[3.2.0]hept-3-ylsulfanyl]-acetyl}-mutilin hydrochloride and the (1S, 2R, 3R, 5S, 6R) diastereomers thereof [Example 16] | ≤ 2 µg/mL | ≤ 2 µg/mL
